PubChem BioAssay AID493014 (National Center for Advancing Translational Sciences (NCATS), 2011)
The other results are listed elsewhere or left out. The main result of the screen is listed elsewhere. These columns were measured beside it and carry no call. Most of these compounds were active or inconclusive in the main read-out, so they are no random draw. The note in brackets gives the kind of curve behind each potency; many fits are weak.

Experiment: qHTS Assay to Find Inhibitors of Chronic Active B-Cell Receptor Signaling
Conditions: ABC-DLBCL IkBa-CBG/CBR reporter, luminescence ratio (green luciferase fused to IkBa over red control in TMD8 lymphoma cells), 4 h
Procedure, shortened: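 TMD8 ABC-DLBCL cells carrying doxycycline-inducible green luciferase fused to IkappaBalpha plus unfused red luciferase were exposed to compounds (up to 46 uM) for 4 hrs at 37C. Activity came from the overlap-corrected green/red luminescence ratio.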

[1] = measured here: CBR red luminescence, cell number
[2] = measured here: IkBa-CBG green luminescence

Row | SMILES | AC50 [1] | AC50 [2]
1 | Cc1ccc(NC(=O)c2nc(S(=O)(=O)Cc3ccccc3)ncc2Cl)cc1 | 5.62 µM [falling, full curve] | 
2 | Cn1c(=O)c2c(nc(SCC(=O)N3CCc4ccccc43)n2Cc2ccccc2)n(C)c1=O | 29.1 µM [rising, single point] | 
3 | FC(F)(F)c1ccc2c(c1)C1C=CCC1C(c1ccncc1)N2 (configuration not stated) | 11.2 µM [falling, single point] | 
4 | COc1ccc(O)c(CNn2c(-c3ccc(Br)cc3)nc3ccccc3c2=O)c1 | 0.0891 µM [falling, full curve, poor fit] | 
5 | COCCNC(=O)c1cc2cc3ccc(OC)cc3nc2o1 | 15.8 µM [falling, single point] | 
6 | Cc1cc(/C=C2/NC(=O)N(Cc3ccccc3F)C2=O)c(C)n1C(C)C | 20.6 µM [falling, single point] | 
7 | O=c1nc2cccc3c2=c(/c1=C(\O)c1ccccc1)c1ccccc1c3=O | 1.26 µM [falling, full curve, poor fit] | 
8 | COCCn1c(C)cc(C2=NNC(=Nc3ccccc3F)SC2)c1C | 23.1 µM [falling, single point] | 
9 | O=C(COC(=O)c1cc2ccccc2cc1O)Nc1ccccc1F | 0.461 µM [rising, full curve, poor fit] | 
10 | CS(=O)(=O)c1ccc(C(=O)OCc2nnc(-c3ccccc3)o2)cc1[N+](=O)[O-] | 12.6 µM [falling, partial curve] | 35.5 µM [rising, single point]
11 | COc1ccccc1NC(=O)c1ccc(NC(=O)CSc2nnnn2C)cc1 | 23.1 µM [falling, single point] | 
12 | COCCn1c(N)c(C(=S)NC(=O)c2cccs2)c(=O)[nH]c1=O | 11.2 µM [rising, partial curve, poor fit] | 
13 | CCN(CC)C(=O)c1sc2c(c1C)c(=O)n(CCc1ccccc1)c(=O)n2Cc1cccc(Cl)c1 | 6.31 µM [falling, full curve, poor fit] | 
14 | CCc1ccccc1N(CC(=O)NC1CCCCC1)C(=O)CCC(=O)Nc1ccccn1 | 20 µM [falling, partial curve, poor fit] | 
15 | CCn1nc(C(=O)Nc2nc3ccc(C)cc3s2)c2ccccc2c1=O | 20.6 µM [rising, single point] | 
16 | CC(C)c1ccc(NC(=O)CSc2n[nH]c(=O)n2-c2cccnc2)cc1 | 22.4 µM [falling, partial curve, poor fit] | 
17 | Oc1cccc(C2c3[nH]c4ccccc4c3CCN2Cc2cnn(-c3ccccc3)c2)c1 (configuration not stated) | 35.5 µM [falling, single point] | 
18 | O=C(Nc1ccc(C(=O)N2CCOCC2)cc1)Nc1ccc(Cl)cc1Cl | 28.2 µM [rising, partial curve, poor fit] | 
19 | CCSCc1nnc(SCC(=O)Nc2ccc(F)cc2)n1CC | 0.447 µM [falling, full curve, poor fit] | 
20 | COc1ccc(C2=Nn3c(nnc3-c3ccccc3OC)SC2)cc1OC1CCOC1 (configuration not stated) |  | 2.31 µM [falling, full curve]
21 | CCN(CC)c1ccc(NC(=O)CSc2nnc(N)s2)cc1C | 0.517 µM [rising, partial curve, poor fit] | 

Row | SMILES | AC50 [1] | AC50 [2]
22 | Cc1c(C(=O)NCc2ccc3c(c2)OCO3)sc2nc(-c3ccc(F)cc3)cn12 | 32.6 µM [rising, partial curve, poor fit] | 
23 | COc1cccc(C(=O)NCC(c2ccc3c(c2)OCO3)N2CCN(c3ccc(F)cc3)CC2)c1 (configuration not stated) | 20.6 µM [falling, partial curve] | 
24 | Fc1ccccc1C1c2cccn2CCN1C(=S)Nc1ccc(Br)cc1 (configuration not stated) | 12.6 µM [falling, single point] | 
25 | CCOC(=O)c1cnc(Nc2ccc(OCC)cc2)nc1C | 8.2 µM [falling, partial curve, poor fit] | 
26 | CC(C)(C)c1ccc(C(=O)Nc2cnccn2)cc1 | 0.146 µM [rising, full curve, poor fit] | 
27 | Cc1cccc(C(=O)OC(C)C(=O)NC(=O)NC2CCCCC2)c1O (configuration not stated) | 32.6 µM [rising, partial curve, poor fit] | 
28 | O=C(COc1ccccc1)N1CCN(c2ncnc3c2cnn3-c2ccccc2)CC1 | 36.6 µM [falling, partial curve, poor fit] | 
29 | CCOC(=O)c1cnc2c(C#N)c(C)nn2c1-c1ccccc1 | 29.1 µM [rising, single point] | 
30 | CC(=O)Nc1cc(N=Cc2ccc(O)cc2O)c(Cl)cc1Cl | 20.6 µM [falling, single point] | 20.6 µM [falling, partial curve, poor fit]
31 | Cc1ccc(-n2ncc3c(N4CCCCCC4)ncnc32)cc1C | 7.94 µM [rising, partial curve, poor fit] | 
32 | CN(C)CCCN(C(=O)c1ccc(S(=O)(=O)N2CCCCCC2)cc1)c1nc2c(F)cccc2s1 | 12.6 µM [rising, single point] | 
33 | CCOc1cccc(/C=C/c2ccc3cccc(O)c3n2)c1OC | 3.16 µM [rising, full curve, poor fit] | 10 µM [falling, partial curve]
34 | O=C(Cc1ccccc1)Nc1ccc(NC(=O)c2ccccc2)nc1 | 25.1 µM [falling, single point] | 
35 | CCc1cccc(C)c1NC(=S)N(CCN(C)C)C(C)c1ccco1 (configuration not stated) | 0.447 µM [rising, full curve, poor fit] | 
36 | Cc1ccc(NC(=O)CSc2nc3nn(-c4ccccc4)c(=O)c-3c3n2CCCCC3)cc1F | 29.1 µM [falling, single point] | 
37 | CC1=CC(C)C(/C=N/n2cnnc2)C(C)C1 (configuration not stated) | 10 µM [rising, partial curve, poor fit] | 
38 | Clc1cccc(Nc2ncnc3c2cnn3-c2ccccc2)c1 | 20.6 µM [falling, partial curve, poor fit] | 
39 | Cc1ccc(-c2csc3ncn(CC(=O)N4CCOCC4)c(=O)c23)cc1C | 4.61 µM [rising, single point] | 
40 | COC(=O)C1C(c2ccc(N(C)C)cc2)C(C(=O)OC)S(=O)(=O)CS1(=O)=O (configuration not stated) | 35.5 µM [rising, single point] | 
41 | COc1ccc2cc(C3c4cc(OC)c(OC)cc4CCN3C(=O)c3ccco3)c(=O)[nH]c2c1 (configuration not stated) | 7.94 µM [rising, partial curve, poor fit] | 12.6 µM [falling, partial curve]
42 | Brc1ccccc1OCCCOc1cccc2cccnc12 | 1.41 µM [rising, partial curve] | 

Row | SMILES | AC50 [1] | AC50 [2]
43 | COc1ccc(CSCCN)cc1Cl | 11.6 µM [rising, partial curve, poor fit] | 
44 | Cn1cc(CNC(=O)/C=C/c2ccc(Cl)cc2)cn1 | 29.1 µM [falling, single point] | 
45 | Cc1ccc(C)c(C(C)NC(=S)NCc2ccc(F)cc2)c1 (configuration not stated) | 35.5 µM [falling, single point] | 
46 | Clc1cccc(CSc2ncn(-c3ccccc3)n2)c1 | 23.1 µM [rising, single point] | 
47 | N#CCC(=O)Nc1ccc(C(=O)NCCC(c2ccccc2)c2ccccc2)cc1 | 35.5 µM [falling, partial curve, poor fit] | 
48 | CCn1nc(C(=O)OCC(=O)c2c[nH]c3ccccc23)c2ccccc2c1=O | 35.5 µM [falling, single point] | 
49 | Cc1c(Cl)cccc1N1C(=O)c2ccccc2C1=O | 29.1 µM [rising, single point] | 
50 | CCCOc1ccc(NC(=O)CC2C(=O)N(CC)C(=S)N2CCNC(C)=O)cc1 (configuration not stated) | 29.1 µM [rising, single point] | 
51 | Cc1cccc(C)c1NC(=S)Nc1ccc(F)cc1 | 31.6 µM [rising, single point] | 
52 | CCOc1ccc(NC(=S)NC(=O)/C=C/c2ccc(OC)c(OC)c2)c([N+](=O)[O-])c1 | 35.5 µM [rising, single point] | 
53 | CCOc1cc2[nH]c(=S)n(CCCCC(=O)NCc3ccco3)c(=O)c2cc1OCC | 0.92 µM [rising, full curve, poor fit] | 
54 | Cc1cc(C)n(/N=C/c2cccs2)c(=O)c1C#N | 5.8 µM [rising, full curve] | 
55 | Cc1nnc2ccc(-c3ccc(NS(=O)(=O)c4ccccc4[N+](=O)[O-])cc3)nn12 | 6.51 µM [rising, partial curve] | 11.6 µM [falling, partial curve]
56 | N=c1c2c(-c3ccccc3)c(-c3ccccc3)oc2ncn1CCN1CCOCC1 | 35.5 µM [falling, single point] | 
57 | Fc1ccc(-c2cc(-c3ccccc3)nc(-n3cccn3)n2)cc1 | 11.2 µM [falling, partial curve, poor fit] | 
58 | O=C(Nc1cccnc1)c1sc2cccc(F)c2c1Cl | 3.16 µM [rising, partial curve] | 
59 | COc1ccc(/C=N/NS(=O)(=O)c2ccccc2)cc1OS(=O)(=O)c1ccc(C)cc1 | 23.1 µM [falling, single point] | 
60 | CCOC(=O)c1c(NC(=O)c2ccco2)n(C2CCCCC2)c2nc3ccccc3nc12 | 1.58 µM [rising, partial curve, poor fit] | 
61 | NNC(=O)[C@H](Cc1ccccc1)NC(=O)NCCc1ccccc1 | 0.562 µM [rising, full curve, poor fit] | 
62 | Cc1cc(NC(=O)COC(=O)CCS(=O)(=O)c2ccc(C)c(C)c2)no1 | 35.5 µM [falling, partial curve, poor fit] | 

Reformatted tab-delimited: part of the list above
Row	SMILES	AC50 [1]	AC50 [2]
48	CCn1nc(C(=O)OCC(=O)c2c[nH]c3ccccc23)c2ccccc2c1=O	35.5 µM [falling, single point]	
49	Cc1c(Cl)cccc1N1C(=O)c2ccccc2C1=O	29.1 µM [rising, single point]	
50	CCCOc1ccc(NC(=O)CC2C(=O)N(CC)C(=S)N2CCNC(C)=O)cc1 (configuration not stated)	29.1 µM [rising, single point]	
51	Cc1cccc(C)c1NC(=S)Nc1ccc(F)cc1	31.6 µM [rising, single point]	
52	CCOc1ccc(NC(=S)NC(=O)/C=C/c2ccc(OC)c(OC)c2)c([N+](=O)[O-])c1	35.5 µM [rising, single point]	
